These results are taken from paper doi:10.1101/2025.04.04.647210.

Protein sequences, listed by entry. Tags and fused reporters are not part of them.
UniProt Q9EPK5: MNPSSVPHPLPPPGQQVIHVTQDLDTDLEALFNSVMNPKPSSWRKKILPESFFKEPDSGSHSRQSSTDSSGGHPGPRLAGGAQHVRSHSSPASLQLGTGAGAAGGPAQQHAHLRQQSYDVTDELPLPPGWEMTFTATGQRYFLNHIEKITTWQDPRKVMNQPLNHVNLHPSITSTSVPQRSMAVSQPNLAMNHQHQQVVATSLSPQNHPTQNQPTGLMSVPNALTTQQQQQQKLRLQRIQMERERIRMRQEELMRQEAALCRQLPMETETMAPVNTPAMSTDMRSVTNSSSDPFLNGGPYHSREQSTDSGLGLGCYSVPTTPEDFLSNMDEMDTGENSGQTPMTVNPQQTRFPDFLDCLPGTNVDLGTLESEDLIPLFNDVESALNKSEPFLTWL
UniProt P46938: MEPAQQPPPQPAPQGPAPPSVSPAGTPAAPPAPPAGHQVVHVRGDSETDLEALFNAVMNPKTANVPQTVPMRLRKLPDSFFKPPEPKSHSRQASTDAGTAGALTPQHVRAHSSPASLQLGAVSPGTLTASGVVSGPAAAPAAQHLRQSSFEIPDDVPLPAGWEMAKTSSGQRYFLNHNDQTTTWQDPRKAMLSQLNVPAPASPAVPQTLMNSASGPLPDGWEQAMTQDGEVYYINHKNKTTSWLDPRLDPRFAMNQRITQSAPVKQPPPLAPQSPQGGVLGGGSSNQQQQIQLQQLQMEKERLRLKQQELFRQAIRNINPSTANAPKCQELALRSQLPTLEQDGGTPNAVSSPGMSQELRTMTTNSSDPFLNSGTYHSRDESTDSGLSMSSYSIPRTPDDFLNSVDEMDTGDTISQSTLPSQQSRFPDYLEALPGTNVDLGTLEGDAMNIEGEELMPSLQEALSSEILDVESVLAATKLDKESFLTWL

Results are given in words; binding and its absence hold for the method and conditions named. In cells and extracts the contact can be indirect. Some binding calls cover weakened binding; strength is not graded here.

The target in this experiment is HSP90α (mouse (endogenous in murine fibroblasts)) (UniProt P07901). Briefly: co-IP.

On to Taz (from UniProt Q9EPK5 1-395), for which the binding result was “binds”.

Turning to Yap (from UniProt P46938 1-488), the binding entry was “binds”.
